Results from PubChem BioAssay AID493014 (National Center for Advancing Translational Sciences (NCATS), 2011).
Where “and” joins values, the source holds several entries; their conditions need not be identical. Equal values may be shown once. Some of the results follow. Shown are side measurements of this screen, not its main read-out; they come without a call. The list favours compounds with an active or inconclusive main result. Words in brackets tell the shape of the fitted curve; partial curves, single points and poor fits give uncertain potencies.

Experiment: qHTS Assay to Find Inhibitors of Chronic Active B-Cell Receptor Signaling
Settings: ABC-DLBCL IkBa-CBG/CBR reporter, luminescence ratio (green luciferase fused to IkBa over red control in TMD8 lymphoma cells), 4 h
Method in brief: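 TMD8 human ABC-DLBCL cells with doxycycline-inducible IκBα–green luciferase fusion and unfused red luciferase, in 0.5% FBS medium; compounds up to 46 uM, 4 h at 37C. Green/red luminescence ratio, filter-overlap corrected, fitted to concentration-response curves.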

[1] = measured here: CBR red luminescence, cell number
[2] = measured here: IkBa-CBG green luminescence

Compound | AC50 [1] | AC50 [2]
Cc1ccc(-n2[nH]c(C)c(C=Nc3ccc(C)cn3)c2=O)cc1 | 20.6 µM [falling, single point] | 
Cc1cc(C)c(NC(=O)NC(=O)C(Cl)(Cl)Cl)c(C)c1 | 14.1 µM [falling, partial curve] | 
COc1ccc(-c2nc3ccccc3s2)cc1NC(C)=O | 2.24 µM [rising, full curve, poor fit] and 3.98 µM [rising, partial curve, poor fit] | 
Cc1ccc(NC(=O)N2CCC(C(=O)Nc3ccc(C)cc3C)CC2)cc1 | 32.6 µM [rising, partial curve, poor fit] | 
COC(=O)c1ccc(/C=N/NC(=O)c2ccc3nc[nH]c3c2)cc1 | 4.47 µM [falling, full curve, poor fit] | 
Cc1nn2cnnc2c(C)c1Cc1c(F)cccc1Cl | 1.78 µM [rising, partial curve] | 
CCCCCc1nnc(NC(=O)C2CCCO2)s1 (stereo not given) | 4.61 µM [rising, partial curve, poor fit] | 
O=C(O)COc1ccc(/C=C2\SC(=Nc3ccccc3)N(c3ccccc3)C2=O)cc1 | 0.398 µM [falling, full curve, poor fit] | 
CCOC(=O)C1=C(c2ccccc2)NC(SCC(N)=O)=C(C#N)C1c1cccnc1 (stereo not given) | 29.1 µM [rising, single point] | 
COc1cc(-c2nnc(COc3ccc4ccccc4c3)o2)cc(OC)c1OC | 10 µM [falling, partial curve] | 
O=C(Nc1ccn(Cc2ccccc2F)n1)c1ccc(COc2cccc(Br)c2)cc1 | 0.82 µM [rising, partial curve, poor fit] | 
CNC(=S)N(CCc1c(C)[nH]c2ccc(OC)cc12)Cc1ccco1 | 11.2 µM [rising, partial curve, poor fit] | 
COc1ccc2cc1Oc1ccc(cc1)C[C@H]1c3cc(c(OC)cc3CCN1C)Oc1c(O)c(OC)cc3c1[C@H](C2)N(C)CC3 | 17.8 µM [falling, partial curve, poor fit] | 10 µM [rising, partial curve, poor fit]
COc1ccccc1N1CCN(C(=O)C(Sc2ccccc2)c2ccccc2)CC1 (stereo not given) | 5.8 µM [falling, partial curve, poor fit] | 23.1 µM [rising, partial curve, poor fit]
CC(=O)Nc1ccc(S(=O)(=O)Nc2nc3ccccc3nc2Nc2ccc(O)c(C(=O)O)c2)cc1 | 11.2 µM [falling, partial curve, poor fit] | 
Nc1cccc(C(=O)N/N=C/c2ccsc2)c1 | 7.94 µM [falling, partial curve] | 
O=C(CSc1nnc(-c2ccc(Cl)cc2)c(-c2ccc(Cl)cc2)n1)NC1CCCC1 | 35.5 µM [falling, single point] | 
S=C(Nc1cccc(Cl)c1)N(CCCN1CCCC1)Cc1cccn1Cc1ccc(Cl)cc1 | 22.4 µM [falling, single point] | 
Oc1ccc(Nc2nc(Cl)nc(NCc3ccco3)n2)cc1 | 16.4 µM [falling, partial curve] | 
CCn1c(=O)c(C(=O)NNC(=O)c2ccccc2)c(O)c2ccccc21 | 14.1 µM [falling, partial curve, poor fit] | 
CCOC(=O)Cn1cc([N+](=O)[O-])c(OC)n1 | 5.8 µM [falling, full curve, poor fit] | 

Compound | AC50 [1] | AC50 [2]
O=C(CNC(=O)c1ccc(Br)o1)Nc1ccc(F)c(S(=O)(=O)N2CCOCC2)c1 | 14.6 µM [falling, partial curve] | 
COc1ccc(CCN(C)C(=O)C2CCN(Cc3cccc(OC)c3OC)CC2)cc1OC | 0.112 µM [falling, full curve, poor fit] | 
O=C(NCCc1c[nH]c2ccccc12)c1cc(Cl)c2c(c1)OCO2 | 3.98 µM [falling, partial curve, poor fit] | 
COc1cc(C2=CN(Cc3ccccc3)CCC2=O)cc(OC)c1OC | 14.6 µM [rising, partial curve, poor fit] | 
CC(C)c1ccc(NC(=O)C2C3C=CC4(O3)C2C(=O)N(CCCN2CCCCC2)C4C(=O)NC2CCCCC2)cc1 (stereo not given) | 0.0891 µM [rising, full curve, poor fit] | 
CCn1c(=O)c(C(=O)NCCc2ccccc2)c(O)c2ccccc21 | 2.06 µM [falling, full curve] | 
Nc1ncnc2c1ncn2[C@@H]1O[C@H](CNS(=O)(=O)c2cc3ccccc3s2)[C@@H](O)[C@H]1O |  | 6.51 µM [falling, partial curve, poor fit]
O=C(Cc1ccc(Cl)cc1)NCC(=O)N1CCCC1 | 5.17 µM [falling, full curve, poor fit] | 
CC(C)OC(=O)c1nnc(-c2ccccc2)nc1OC(C)C | 25.9 µM [falling, single point] | 
Cc1ccc(S(=O)(=O)N(CC(=O)NCCC2=CCCCC2)Cc2ccccc2F)cc1 |  | 14.1 µM [rising, partial curve, poor fit]
CCn1c(C)nc2cc(C(N)=O)ccc21 | 1.78 µM [rising, partial curve, poor fit] | 
COc1cc(/C=N/NC(N)=S)ccc1OCc1ccc(C)cc1 | 14.6 µM [falling, single point] | 
O=C(Nc1ccc(S(=O)(=O)Nc2cnc3ccccc3n2)cc1)c1ccccc1Br | 35.5 µM [falling, single point] | 
COc1ccc(C(C(=O)NC2CCCC2)N(C(=O)c2snc(-c3ccc(F)cc3)c2N)c2ccccc2)cc1 (stereo not given) | 7.94 µM [rising, partial curve, poor fit] | 
CC(=O)Nc1cccc(NC(=O)Nc2cccc3ccccc23)c1 | 0.355 µM [falling, full curve] | 
CCCCNC(=O)OCC(CC)NC(=O)OCC(C)C (stereo not given) | 28.2 µM [falling, partial curve, poor fit] | 
Cc1ccccc1-c1nc(CN(C)C(C)c2ccon2)c(C)o1 (stereo not given) | 3.98 µM [rising, single point] | 
CCOC(=O)N1CCC(N2CCCC(C(=O)c3ccc4cc(OC)ccc4c3)C2)CC1 (stereo not given) | 11.2 µM [falling, single point] | 
COc1ccc(CNC(=O)CSCc2ccccc2Cl)cc1 | 23.1 µM [rising, partial curve] | 29.1 µM [falling, single point]
O=C(CSc1ccccn1)Nc1nonc1[N+](=O)[O-] | 7.94 µM [falling, partial curve] | 
Cc1cc(C)cc(NC(=O)CN(C)S(=O)(=O)c2cnc[nH]2)c1 | 32.6 µM [rising, single point] | 

Rewritten tab-delimited: part of the list above
Compound	AC50 [1]	AC50 [2]
COc1ccc(CCN(C)C(=O)C2CCN(Cc3cccc(OC)c3OC)CC2)cc1OC	0.112 µM [falling, full curve, poor fit]	
O=C(NCCc1c[nH]c2ccccc12)c1cc(Cl)c2c(c1)OCO2	3.98 µM [falling, partial curve, poor fit]	
COc1cc(C2=CN(Cc3ccccc3)CCC2=O)cc(OC)c1OC	14.6 µM [rising, partial curve, poor fit]	
CC(C)c1ccc(NC(=O)C2C3C=CC4(O3)C2C(=O)N(CCCN2CCCCC2)C4C(=O)NC2CCCCC2)cc1 (stereo not given)	0.0891 µM [rising, full curve, poor fit]	
CCn1c(=O)c(C(=O)NCCc2ccccc2)c(O)c2ccccc21	2.06 µM [falling, full curve]	

Additional compounds.

Compound | AC50 [1] | AC50 [2]
O=C(NC(Cc1ccccc1)c1ccc2c(c1)OCCCO2)c1ccccc1 (stereo not given) | 16.4 µM [rising, single point] | 
CC12CC3CC(C)(C1)CC(C(=O)NC1=NCCS1)(C3)C2 | 0.731 µM [rising, full curve, poor fit] | 
O=C(Cc1c[nH]c2ccccc12)Nc1nnc(C2CC2)s1 | 12.6 µM [falling, single point] | 
Cc1cc(O)c(-c2n[nH]c3c2C(c2cccc(O)c2)N(Cc2cccnc2)C3=O)cc1Cl (stereo not given) | 0.326 µM [falling, full curve, poor fit] | 
COc1cccc(/C=N/NC(=O)Cn2cnc3c2c(=O)n(C)c(=O)n3C)c1OC | 0.708 µM [rising, full curve, poor fit] | 
Cc1cc(C)c2c(=O)n(CC(=O)Nc3cccc(F)c3)sc2n1 | 35.5 µM [rising, single point] | 
COc1ccc(NC(=O)c2[nH]c(C)c(C(C)=O)c2C)cc1 | 10 µM [rising, partial curve] | 
COc1ccc(N2CCN(C(=O)CN3C(=O)NC(C)(c4ccc5ccccc5c4)C3=O)CC2)cc1 (stereo not given) | 25.9 µM [falling, single point] | 
Cc1cc(-c2ccccc2)nc(N/N=C/c2ccco2)n1 | 12.6 µM [falling, partial curve, poor fit] | 
CCOC(=O)c1sc(-c2ccc(F)cc2)cc1N | 0.326 µM [rising, partial curve, poor fit] | 
Cc1oc(-c2ccccc2)cc1C(=O)Nc1cccc(/C=C/C(=O)O)c1 | 11.2 µM [falling, single point] | 0.112 µM [rising, full curve, poor fit]
CCOC(=O)c1ccc(NC(=O)c2cc(S(=O)(=O)N3CCOCC3)ccc2O)cc1 | 4.61 µM [falling, full curve] | 
CCOc1ncccc1C(=O)OCC(=O)Nc1ccc(-c2nc3ccc(C)cc3s2)cc1 | 0.731 µM [rising, partial curve, poor fit] | 
COc1ccc(-n2c(-c3cc(-c4ccccc4)sc3N)n[nH]c2=S)cc1 | 15.8 µM [falling, single point] | 
Nc1nccnc1C(=O)N/N=C/c1ccco1 | 22.4 µM [falling, single point] | 
Cc1ccc(OCc2ccc(C(=O)O)o2)cc1C | 5.01 µM [falling, partial curve] | 
Cc1cc(C(=O)OCC(=O)NC(=O)NC(C)(C)C)c(C)o1 | 14.1 µM [falling, single point] | 
CCn1c(=O)cc(SCC(=O)NCCCN2CCN(c3ccccc3F)CC2)c2ccccc21 | 22.4 µM [falling, partial curve] | 
Cc1ccc(N(CCO)C(=S)Nc2ccccc2)cc1 | 35.5 µM [rising, single point] | 
